Experimental data taken from paper PMC7819943, “Rice protein-binding microarrays: a tool to detect cis-acting elements near promoter regions in rice”.
The other results are listed elsewhere or left out.

Amino acid sequences for entries named in this document (tags omitted).
UniProt Q0JBA9, entry or part of it: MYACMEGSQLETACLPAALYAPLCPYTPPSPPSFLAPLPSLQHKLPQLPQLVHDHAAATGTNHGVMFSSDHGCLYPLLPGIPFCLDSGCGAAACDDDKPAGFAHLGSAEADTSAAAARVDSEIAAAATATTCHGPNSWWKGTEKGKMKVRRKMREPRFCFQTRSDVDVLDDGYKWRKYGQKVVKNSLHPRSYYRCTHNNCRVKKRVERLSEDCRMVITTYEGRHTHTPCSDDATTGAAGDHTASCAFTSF

biological target: OsWRKY34 (Oryza sativa, UniProt Q0JBA9 1-250); assay: protein-binding microarray (RPBM); PBS, 2% BSA, 51.3 ng/ul salmon testes DNA, 50 uM zinc acetate, 200 nM TF, 25 C, 1 h; high values mean tight binding; details: protein: recombinant; tags: N-terminal polyhistidine and DsRed monomer fusion (pET32a); label: CyDye5-dUTP incorporated in the synthesized complementary strand; 3' TTTTT single-stranded linker to array surface; dsDNA, one strand shown
How it was run: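 The binding signal is fluorescence intensity per array feature (arbitrary units). Readings came from an Axon 4000B scanner after a washed, 2% BSA-blocked, double-stranded custom Agilent array had been incubated for 1 h at 25 °C with 200 nM protein and 50 µM zinc acetate. The protein was a Ni–NTA-purified transcription factor fused N-terminally to polyhistidine and DsRed, expressed in E. coli BL21-CodonPlus.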

| Sequence | binding signal |
| --- | --- |
| TGGCTTATCTCGTTTTGTATATCATCTTCTTAATCTTTTTCGGAGTCACCTAGTGCAG | 10500 fluorescence intensity (a.u.) |
| CCACCGATTGCTTGTCTCCATTTGCACCCGCTCCAGAAACCGGAGTCACCTAGTGCAG | 10200 fluorescence intensity (a.u.) |
| TATGAACTTGCTCGATCACTCTGTCACTCACTCACTCACCCGGAGTCACCTAGTGCAG | 8960 fluorescence intensity (a.u.) |
| GACTTATCTAGAGCACTTATTATATGTGTTGGTGCCACGCCGGAGTCACCTAGTGCAG | 8030 fluorescence intensity (a.u.) |
| AATATATTTTGACTATTTGTTTGTTTTGTATTGAAAATACCGGAGTCACCTAGTGCAG | 9660 fluorescence intensity (a.u.) |
| ACGCTCACACATGCACACTCACAACCCTATAAACACCTCTCGGAGTCACCTAGTGCAG | 8270 fluorescence intensity (a.u.) |
| GCATCCGCCTCCTATATATTGGACCTGCACCTCGCGCCGCCGGAGTCACCTAGTGCAG | 8660 fluorescence intensity (a.u.) |
| TTTCTCTGCTCCTCTTGCTCATCGACGTCAGCGTCCCCAACGGAGTCACCTAGTGCAG | 8420 fluorescence intensity (a.u.) |
| TGTCGGAGCTCCATTTCTTTGGCTTGTTCATCCTCGAGCTCGGAGTCACCTAGTGCAG | 8740 fluorescence intensity (a.u.) |
| ATTGTTTCATCTACATTTGCACCTCATAGTTGTGCAAGTTCGGAGTCACCTAGTGCAG | 9070 fluorescence intensity (a.u.) |
| GGGATGTGACTCCATTATCATGCAAAGTTCCTAACCATGTCGGAGTCACCTAGTGCAG | 9060 fluorescence intensity (a.u.) |
| TTGCTACTTAACCTTTTTTTTTTTTGACACTCCATTCAACCGGAGTCACCTAGTGCAG | 9860 fluorescence intensity (a.u.) |
| TATCTAATAATTGGATGGTTACAACCAAATACTTCTACATCGGAGTCACCTAGTGCAG | 9870 fluorescence intensity (a.u.) |
| GCTATTGTACCTGCTCTTATGATAGTATGCCCATCTCTGACGGAGTCACCTAGTGCAG | 9340 fluorescence intensity (a.u.) |
| CCTCCTCGACGCTTCCACCGCGCCACCTCGCTCCTCCGCCCGGAGTCACCTAGTGCAG | 8590 fluorescence intensity (a.u.) |
| ATGCTTTTATCCCCTGTTAATTTCTTGTGACCATTATTTTCGGAGTCACCTAGTGCAG | 10900 fluorescence intensity (a.u.) |
| TGCTGTGAGTGTATATATTTGTACTGTGTTTTTCTTTAAACGGAGTCACCTAGTGCAG | 8140 fluorescence intensity (a.u.) |
| CAGTTTGACAGTCACAAGAATAATTGGCCATCGCATCTCGCGGAGTCACCTAGTGCAG | 8300 fluorescence intensity (a.u.) |
| GGATATAAAAATTTTCTTGGATGGGGTTTAAGTAAATTTCCGGAGTCACCTAGTGCAG | 9520 fluorescence intensity (a.u.) |
| TGATGTGTGACAGGGGAGATTGTTGGGTTTAGTCCTCATGCGGAGTCACCTAGTGCAG | 9710 fluorescence intensity (a.u.) |
| AACACGCACAACATTTTTCTTATACATTTCACTCGACGGCCGGAGTCACCTAGTGCAG | 8830 fluorescence intensity (a.u.) |

A second format for some results above.
Sequence,binding signal
TTTCTCTGCTCCTCTTGCTCATCGACGTCAGCGTCCCCAACGGAGTCACCTAGTGCAG,8420 fluorescence intensity (a.u.)
GGGATGTGACTCCATTATCATGCAAAGTTCCTAACCATGTCGGAGTCACCTAGTGCAG,9060 fluorescence intensity (a.u.)

More records:

| Sequence | binding signal |
| --- | --- |
| GAGGTGGGTGAGGGTCTGTTCAAATATCTATGTTAGTTTACGGAGTCACCTAGTGCAG | 11800 fluorescence intensity (a.u.) |
| TACTAATCTCTCTCTCTTTCCTACTTTGCATCGATCGTCCCGGAGTCACCTAGTGCAG | 8730 fluorescence intensity (a.u.) |
| TTTAGGGGTGAATTTGGATTGATTTAGATGTTGATGGTGTCGGAGTCACCTAGTGCAG | 9200 fluorescence intensity (a.u.) |
| TTGGACTTCGATATGGTCTTCACGATGCTACTTTGACTAACGGAGTCACCTAGTGCAG | 8610 fluorescence intensity (a.u.) |
| GCCTATATTTAATACTTCATTCAAGCGTTCGATATGACAGCGGAGTCACCTAGTGCAG | 9430 fluorescence intensity (a.u.) |
| TCGTCAAATCTGGCCGTTTCAAGATAATATGCTAGCCGTTCGGAGTCACCTAGTGCAG | 8850 fluorescence intensity (a.u.) |
| TCCACGAGTCAATTCAAGGTTTGACCACACTCTTTCCGTTCGGAGTCACCTAGTGCAG | 11900 fluorescence intensity (a.u.) |
| AGGGTTTACGTTACTGTCTCGCGTCGTTTCTACGGTTACCCGGAGTCACCTAGTGCAG | 10800 fluorescence intensity (a.u.) |
| AATCTTTCGCTAATTCGTTTCACCTTCCCCATTCCATCTCCGGAGTCACCTAGTGCAG | 11600 fluorescence intensity (a.u.) |
| CGCTAGGGTTTGCTCTTCCGCTCTCTCGCCGCCGCCGCCGCGGAGTCACCTAGTGCAG | 10300 fluorescence intensity (a.u.) |
| GCAGTAATCGTGCCCGTGCCTGAGTCCGTTTCCATACGCGCGGAGTCACCTAGTGCAG | 8260 fluorescence intensity (a.u.) |
| TATTGTTCCGTTTCCGGTTTTCCGATATTTCCGATATCGTCGGAGTCACCTAGTGCAG | 12000 fluorescence intensity (a.u.) |
| AGTTTTTGTTTGAACTGTTTGACCACTTGTCTTATTCAAACGGAGTCACCTAGTGCAG | 10900 fluorescence intensity (a.u.) |
| AACGTGGATGCTTTTTTTTATTCCTTTAATAAGTTATTAGCGGAGTCACCTAGTGCAG | 8130 fluorescence intensity (a.u.) |
| CGCCGAGTGGTGGTTGGTTGGTTGATCGCGCATGTTGGGTCGGAGTCACCTAGTGCAG | 10100 fluorescence intensity (a.u.) |
| TGTGGTGTGTGTGTGGCTGAAACCGCGAGGCCGCCGCGAGCGGAGTCACCTAGTGCAG | 8510 fluorescence intensity (a.u.) |
| ACCTAGCACAAAACGACATTCTATATACACTGTTTTTCTTCGGAGTCACCTAGTGCAG | 9850 fluorescence intensity (a.u.) |
| TTTAAATGTTTCAGTTGCTGATTTTTTTTGTTTCACACTACGGAGTCACCTAGTGCAG | 8070 fluorescence intensity (a.u.) |
| GCAACTGAAGCTCCCATAAACATTTCGGCATGCTATTTCTCGGAGTCACCTAGTGCAG | 8160 fluorescence intensity (a.u.) |
| CGCGGTTGTTTCTTGTCTGTTGAATGGTCAACTTTGACCGCGGAGTCACCTAGTGCAG | 14800 fluorescence intensity (a.u.) |
| TGGTTTGGTTGTGGTAGATCTTTTTTACTTATTGCTACCACGGAGTCACCTAGTGCAG | 15800 fluorescence intensity (a.u.) |
